The values below come from PMC3967948.

Protein sequences, listed by entry. Tags and fused reporters are not part of them.
UniProt Q501J6: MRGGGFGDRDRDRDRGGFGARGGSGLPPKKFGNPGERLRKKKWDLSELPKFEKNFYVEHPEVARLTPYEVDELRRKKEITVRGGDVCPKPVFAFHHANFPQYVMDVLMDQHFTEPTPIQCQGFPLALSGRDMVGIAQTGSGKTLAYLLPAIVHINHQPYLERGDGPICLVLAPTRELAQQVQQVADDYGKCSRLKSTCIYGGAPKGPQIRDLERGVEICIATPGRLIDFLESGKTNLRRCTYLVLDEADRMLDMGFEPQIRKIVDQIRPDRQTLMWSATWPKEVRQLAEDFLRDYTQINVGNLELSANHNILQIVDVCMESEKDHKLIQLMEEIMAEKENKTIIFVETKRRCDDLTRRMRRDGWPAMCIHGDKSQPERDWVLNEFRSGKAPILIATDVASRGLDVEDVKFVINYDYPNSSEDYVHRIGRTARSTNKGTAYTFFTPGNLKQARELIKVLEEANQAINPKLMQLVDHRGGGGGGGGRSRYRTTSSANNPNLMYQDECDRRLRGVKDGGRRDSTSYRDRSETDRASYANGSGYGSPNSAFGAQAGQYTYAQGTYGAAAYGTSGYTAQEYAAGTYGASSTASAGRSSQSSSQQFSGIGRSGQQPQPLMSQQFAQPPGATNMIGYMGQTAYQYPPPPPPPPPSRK
UniProt Q8VEK3: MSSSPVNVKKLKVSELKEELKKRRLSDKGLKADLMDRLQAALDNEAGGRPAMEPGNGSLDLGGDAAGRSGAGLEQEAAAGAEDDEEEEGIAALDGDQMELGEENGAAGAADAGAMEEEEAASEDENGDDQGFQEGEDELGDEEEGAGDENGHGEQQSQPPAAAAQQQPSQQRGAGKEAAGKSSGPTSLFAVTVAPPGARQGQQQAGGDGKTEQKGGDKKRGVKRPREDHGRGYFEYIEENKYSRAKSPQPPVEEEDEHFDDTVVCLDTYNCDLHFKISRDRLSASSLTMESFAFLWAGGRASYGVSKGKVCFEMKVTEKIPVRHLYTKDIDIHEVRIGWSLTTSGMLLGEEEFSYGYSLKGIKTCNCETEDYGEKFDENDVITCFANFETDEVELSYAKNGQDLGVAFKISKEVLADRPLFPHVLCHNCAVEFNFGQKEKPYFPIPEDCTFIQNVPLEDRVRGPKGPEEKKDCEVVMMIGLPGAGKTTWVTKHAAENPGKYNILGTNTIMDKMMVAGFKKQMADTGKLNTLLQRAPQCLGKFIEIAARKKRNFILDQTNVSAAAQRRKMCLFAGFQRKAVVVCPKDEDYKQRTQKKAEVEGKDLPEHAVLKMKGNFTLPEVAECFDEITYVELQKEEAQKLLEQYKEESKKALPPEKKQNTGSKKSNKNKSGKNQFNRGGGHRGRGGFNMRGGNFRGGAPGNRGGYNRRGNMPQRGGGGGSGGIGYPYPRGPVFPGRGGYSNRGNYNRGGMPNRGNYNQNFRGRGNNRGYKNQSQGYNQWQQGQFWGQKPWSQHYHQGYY
UniProt P29341: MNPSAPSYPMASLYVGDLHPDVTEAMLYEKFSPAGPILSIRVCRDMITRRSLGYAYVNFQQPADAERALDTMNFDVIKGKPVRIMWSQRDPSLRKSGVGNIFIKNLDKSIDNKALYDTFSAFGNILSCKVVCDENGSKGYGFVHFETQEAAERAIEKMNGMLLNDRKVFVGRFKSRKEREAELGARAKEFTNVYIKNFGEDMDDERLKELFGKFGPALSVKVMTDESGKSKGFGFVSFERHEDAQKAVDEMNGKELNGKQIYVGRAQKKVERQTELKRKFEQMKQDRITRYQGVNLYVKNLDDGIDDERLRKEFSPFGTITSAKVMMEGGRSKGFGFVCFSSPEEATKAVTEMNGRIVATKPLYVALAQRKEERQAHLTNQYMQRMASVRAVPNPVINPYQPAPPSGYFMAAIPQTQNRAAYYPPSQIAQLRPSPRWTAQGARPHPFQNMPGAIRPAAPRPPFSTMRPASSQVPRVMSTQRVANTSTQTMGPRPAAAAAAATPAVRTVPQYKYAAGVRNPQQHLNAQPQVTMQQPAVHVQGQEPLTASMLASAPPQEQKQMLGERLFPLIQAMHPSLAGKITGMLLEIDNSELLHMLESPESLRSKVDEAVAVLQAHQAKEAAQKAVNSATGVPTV
UniProt Q92841: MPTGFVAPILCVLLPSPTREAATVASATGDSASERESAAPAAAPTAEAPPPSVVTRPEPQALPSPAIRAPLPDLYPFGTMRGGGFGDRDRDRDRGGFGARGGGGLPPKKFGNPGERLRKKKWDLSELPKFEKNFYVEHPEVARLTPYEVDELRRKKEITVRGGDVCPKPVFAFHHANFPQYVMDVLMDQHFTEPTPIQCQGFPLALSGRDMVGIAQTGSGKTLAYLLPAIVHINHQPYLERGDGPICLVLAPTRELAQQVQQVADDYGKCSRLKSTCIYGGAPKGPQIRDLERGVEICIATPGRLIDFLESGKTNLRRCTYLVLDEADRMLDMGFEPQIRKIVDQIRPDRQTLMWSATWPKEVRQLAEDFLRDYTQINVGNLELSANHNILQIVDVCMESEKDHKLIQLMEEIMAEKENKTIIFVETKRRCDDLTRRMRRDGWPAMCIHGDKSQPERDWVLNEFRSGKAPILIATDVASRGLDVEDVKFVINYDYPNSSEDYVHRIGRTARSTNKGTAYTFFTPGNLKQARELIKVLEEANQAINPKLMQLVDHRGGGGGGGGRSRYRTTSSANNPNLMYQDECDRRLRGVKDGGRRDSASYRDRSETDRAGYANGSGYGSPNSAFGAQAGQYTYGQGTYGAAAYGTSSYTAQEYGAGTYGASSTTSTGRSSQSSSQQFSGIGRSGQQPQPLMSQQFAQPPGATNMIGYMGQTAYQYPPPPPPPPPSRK
UniProt O00571: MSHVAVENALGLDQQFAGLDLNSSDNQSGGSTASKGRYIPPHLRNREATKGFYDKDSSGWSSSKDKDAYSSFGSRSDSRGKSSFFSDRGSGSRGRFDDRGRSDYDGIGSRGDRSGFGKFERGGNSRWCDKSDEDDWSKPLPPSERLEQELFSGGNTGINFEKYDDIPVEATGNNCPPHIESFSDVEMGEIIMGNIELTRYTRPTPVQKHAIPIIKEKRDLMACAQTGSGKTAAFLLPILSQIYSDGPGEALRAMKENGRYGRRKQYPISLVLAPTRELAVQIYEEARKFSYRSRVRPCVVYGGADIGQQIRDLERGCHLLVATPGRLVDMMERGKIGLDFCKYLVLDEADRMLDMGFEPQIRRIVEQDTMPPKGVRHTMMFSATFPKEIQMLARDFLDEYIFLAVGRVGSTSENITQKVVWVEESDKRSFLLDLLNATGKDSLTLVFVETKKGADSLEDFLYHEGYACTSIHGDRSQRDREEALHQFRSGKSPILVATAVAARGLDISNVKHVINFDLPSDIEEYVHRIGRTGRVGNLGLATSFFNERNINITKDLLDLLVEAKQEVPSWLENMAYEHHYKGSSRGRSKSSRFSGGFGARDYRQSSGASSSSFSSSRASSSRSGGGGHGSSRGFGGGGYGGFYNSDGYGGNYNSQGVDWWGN
UniProt P11940: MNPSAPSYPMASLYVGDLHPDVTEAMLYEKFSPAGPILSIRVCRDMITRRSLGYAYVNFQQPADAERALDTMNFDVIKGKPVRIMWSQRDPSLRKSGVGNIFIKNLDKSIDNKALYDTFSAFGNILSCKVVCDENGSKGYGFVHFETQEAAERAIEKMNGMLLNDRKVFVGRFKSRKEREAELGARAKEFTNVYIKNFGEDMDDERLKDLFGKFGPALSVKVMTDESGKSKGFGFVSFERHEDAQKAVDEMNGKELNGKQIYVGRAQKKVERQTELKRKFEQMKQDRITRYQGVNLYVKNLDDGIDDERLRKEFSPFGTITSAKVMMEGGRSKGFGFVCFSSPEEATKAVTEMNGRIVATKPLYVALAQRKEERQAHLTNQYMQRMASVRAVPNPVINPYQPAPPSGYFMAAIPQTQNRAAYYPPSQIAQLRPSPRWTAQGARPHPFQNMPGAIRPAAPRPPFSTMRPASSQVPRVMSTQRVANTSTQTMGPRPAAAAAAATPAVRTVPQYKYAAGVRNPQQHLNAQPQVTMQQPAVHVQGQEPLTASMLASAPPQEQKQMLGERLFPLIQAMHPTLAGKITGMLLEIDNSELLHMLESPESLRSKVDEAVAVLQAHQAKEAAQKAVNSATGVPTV

Experiment [1] concerns the target T1, TBX3 (endogenous, human) (human (endogenous in HEK293)) (UniProt O15119).
T1 sequence: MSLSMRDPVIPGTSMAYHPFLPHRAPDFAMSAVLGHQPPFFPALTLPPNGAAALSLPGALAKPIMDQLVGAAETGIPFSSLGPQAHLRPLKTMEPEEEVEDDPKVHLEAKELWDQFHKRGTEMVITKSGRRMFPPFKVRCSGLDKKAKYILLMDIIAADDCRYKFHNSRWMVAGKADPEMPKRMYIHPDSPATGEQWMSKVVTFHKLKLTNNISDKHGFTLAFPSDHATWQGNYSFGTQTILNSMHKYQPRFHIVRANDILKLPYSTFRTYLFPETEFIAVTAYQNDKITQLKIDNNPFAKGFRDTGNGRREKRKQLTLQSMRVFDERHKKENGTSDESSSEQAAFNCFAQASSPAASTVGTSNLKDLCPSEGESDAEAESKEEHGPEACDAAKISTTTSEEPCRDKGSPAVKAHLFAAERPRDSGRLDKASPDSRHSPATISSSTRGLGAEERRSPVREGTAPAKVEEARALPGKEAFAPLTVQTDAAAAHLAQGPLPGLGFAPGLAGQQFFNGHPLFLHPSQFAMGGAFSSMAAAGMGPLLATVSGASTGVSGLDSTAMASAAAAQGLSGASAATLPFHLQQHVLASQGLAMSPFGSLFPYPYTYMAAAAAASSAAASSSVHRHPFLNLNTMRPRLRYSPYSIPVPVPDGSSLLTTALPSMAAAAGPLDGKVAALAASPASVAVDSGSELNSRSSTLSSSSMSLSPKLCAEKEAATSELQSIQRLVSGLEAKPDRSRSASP
Nature of the experiment: co-IP; endogenous proteins, Dignam lysates of HEK293 cells; IP and immunoblot with specific antibodies. Background: Immunoblotting shows a protein as a band on a membrane.

For experiment [2], the target named is T2, Tbx3 (wild type, transfected) (mouse) (UniProt P70324).
T2 sequence: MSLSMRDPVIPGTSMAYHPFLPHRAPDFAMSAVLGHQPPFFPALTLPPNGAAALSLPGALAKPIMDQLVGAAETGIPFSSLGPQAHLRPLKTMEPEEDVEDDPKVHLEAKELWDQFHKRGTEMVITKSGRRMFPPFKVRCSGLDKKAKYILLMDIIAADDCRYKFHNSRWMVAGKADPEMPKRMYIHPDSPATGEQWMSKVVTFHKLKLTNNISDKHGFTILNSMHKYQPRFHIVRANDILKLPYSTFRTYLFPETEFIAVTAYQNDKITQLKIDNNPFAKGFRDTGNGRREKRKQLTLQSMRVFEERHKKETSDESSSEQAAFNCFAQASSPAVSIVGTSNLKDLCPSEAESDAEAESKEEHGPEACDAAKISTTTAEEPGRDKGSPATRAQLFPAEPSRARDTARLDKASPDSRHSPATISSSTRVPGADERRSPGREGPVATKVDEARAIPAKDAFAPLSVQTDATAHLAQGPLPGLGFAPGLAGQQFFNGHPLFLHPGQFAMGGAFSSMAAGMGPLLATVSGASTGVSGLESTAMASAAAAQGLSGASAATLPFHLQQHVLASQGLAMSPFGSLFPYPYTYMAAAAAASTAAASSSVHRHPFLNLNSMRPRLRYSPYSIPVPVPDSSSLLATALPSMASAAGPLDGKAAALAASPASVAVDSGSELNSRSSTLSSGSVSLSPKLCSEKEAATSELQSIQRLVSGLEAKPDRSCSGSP
Put plainly: co-IP; HEK293 cells with stable retroviral shRNA knockdown of endogenous TBX3, transfected with wild type or mutant Tbx3; Tbx3 IP, immunoblot for endogenous DDX3, hnRNP C, DDX17.

In experiment [3] the target is T1, TBX3 (endogenous, human) (human (endogenous in HEK293)). Put plainly: co-IP; endogenous proteins, HEK293 lysates treated with RNAse A before IP.
The target in experiment [4] is Ddx17 (mouse) (mouse (endogenous in e10.5 embryos)) (UniProt Q501J6). Nature of the experiment: co-IP; endogenous proteins, Dignam lysates of e10.5 mouse embryos; IP and immunoblot with specific antibodies.
For experiment [5], the target named is hnrnp k (mouse) (mouse (endogenous in e10.5 embryos)) (UniProt P61979). The experiment is described as above.
The target in experiment [6] is hnrnp u (mouse) (mouse (endogenous in e10.5 embryos)) (UniProt Q8VEK3). The description is as above.
Experiment [7] concerns the target Pabp1 (mouse) (mouse (endogenous in e10.5 embryos)) (UniProt P29341). The description is as above.

No constants are given. Whether binding was seen depends on the method and setting. In cells and extracts the contact can be indirect. Some results given as binding are weak or reduced against the parent protein; the word gives no strength.

In the case of “Probable ATP-dependent RNA helicase DDX17 (from UniProt Q92841 1-729)”, the binding result in experiment [1] and in experiment [2] was “binds” each time.
Take “ATP-dependent RNA helicase DDX3X (from UniProt O00571 1-662)”: the binding result in experiment [1], in experiment [2] and in experiment [3] was “binds” each time.
For “Poly(A) binding protein, cytoplasmic 1 (from UniProt P11940 1-636)”, the binding result in experiment [1] and in experiment [3] was “binds” in each case.

B1: Tbx3 (endogenous, mouse) (protein, UniProt P70324-2 1-721)
chain: T2 sequence
In the case of B1, the binding result in experiment [4], in experiment [5], in experiment [6] and in experiment [7] was “binds” in each case.
